No constants are given. Whether binding was seen depends on the method and setting. Some results given as binding are weak or reduced against the parent protein; the word gives no strength.
Biological target: AC8-HA (UniProt P40146)
Assay: SDS-PAGE and immunoblot of cell lysates; HEK293 cells stably expressing AC8-HA treated with BFA for the indicated times, lysed, 7% acrylamide SDS-PAGE, probed for AC8

Sequences of proteins named here, by UniProt entry; tags and fusion partners are left off.
UniProt P40146: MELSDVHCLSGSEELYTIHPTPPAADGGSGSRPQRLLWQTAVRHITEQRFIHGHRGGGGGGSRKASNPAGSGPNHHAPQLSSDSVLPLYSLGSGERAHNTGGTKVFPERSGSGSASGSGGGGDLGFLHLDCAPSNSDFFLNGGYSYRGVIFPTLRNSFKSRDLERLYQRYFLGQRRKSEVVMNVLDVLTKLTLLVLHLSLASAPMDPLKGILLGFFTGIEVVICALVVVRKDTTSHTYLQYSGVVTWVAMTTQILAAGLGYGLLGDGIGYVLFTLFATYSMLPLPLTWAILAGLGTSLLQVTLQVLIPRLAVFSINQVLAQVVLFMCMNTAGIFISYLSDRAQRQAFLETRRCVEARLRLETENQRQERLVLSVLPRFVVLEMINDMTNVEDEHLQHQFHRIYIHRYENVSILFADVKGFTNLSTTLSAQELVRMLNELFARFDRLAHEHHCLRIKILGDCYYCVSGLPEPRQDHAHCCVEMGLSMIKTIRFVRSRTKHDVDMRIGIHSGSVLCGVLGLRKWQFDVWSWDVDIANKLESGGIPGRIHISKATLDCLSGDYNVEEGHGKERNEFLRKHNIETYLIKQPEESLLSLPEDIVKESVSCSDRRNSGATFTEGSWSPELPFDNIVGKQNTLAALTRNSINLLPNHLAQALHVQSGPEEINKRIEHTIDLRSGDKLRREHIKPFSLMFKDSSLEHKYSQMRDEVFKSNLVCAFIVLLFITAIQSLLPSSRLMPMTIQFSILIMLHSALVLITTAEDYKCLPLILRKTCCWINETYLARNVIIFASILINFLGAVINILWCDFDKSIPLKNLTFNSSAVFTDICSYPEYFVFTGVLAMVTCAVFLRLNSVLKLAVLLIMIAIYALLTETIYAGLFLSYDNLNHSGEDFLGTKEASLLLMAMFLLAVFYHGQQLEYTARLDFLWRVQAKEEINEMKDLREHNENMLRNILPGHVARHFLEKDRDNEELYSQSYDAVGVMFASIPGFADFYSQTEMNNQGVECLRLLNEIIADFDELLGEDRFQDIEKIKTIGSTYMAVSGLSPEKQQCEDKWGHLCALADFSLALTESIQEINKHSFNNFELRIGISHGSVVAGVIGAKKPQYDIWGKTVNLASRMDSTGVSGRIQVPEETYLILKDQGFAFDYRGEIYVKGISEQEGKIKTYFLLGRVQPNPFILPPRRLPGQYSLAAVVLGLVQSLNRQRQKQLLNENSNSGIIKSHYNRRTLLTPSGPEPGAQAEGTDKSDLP

- binding: binds
Substance: AC8-HA (from UniProt P40146 1-1248) (enzyme)

Source: paper PMC6556161
